Results on one molecule are retold here after PMC6127106.

The experiment concerns the target purified human platelet αIIbβ3 integrin (human). As to the kind of experiment: affinity purification with mass spectrometry; latex beads coated with RGD peptide-activated human platelet β3 integrins, incubated with fractionated heparin-anticoagulated human plasma; 2D electrophoresis, MALDI Q-TOF; only the target purified.

Results are given in words; binding and its absence hold for the method and conditions named. In cells and extracts the contact can be indirect. A yes stands for co-enrichment or nearness to the bait. Other partners may have been found.

B1: human plasma apoA-IV (protein, UniProt P06727 21-396)
chain: EVSADQVATVMWDYFSQLSNNAKEAVEHLQKSELTQQLNALFQDKLGEVNTYAGDLQKKLVPFATELHERLAKDSEKLKEEIGKELEELRARLLPHANEVSQKIGDNLRELQQRLEPYADQLRTQVSTQAEQLRRQLTPYAQRMERVLRENADSLQASLRPHADELKAKIDQNVEELKGRLTPYADEFKVKIDQTVEELRRSLAPYAQDTQEKLNHQLEGLTFQMKKNAEELKARISASAEELRQRLAPLAEDVRGNLRGNTEGLQKSLAELGGHLDQQVEEFRRRVEPYGENFNKALVQQMEQLRQKLGPHAGDVEGHLSFLEKDLRDKVNSFFSTFKEKESQDKTLSLPELEQQQEQQQEQQQEQVQMLAPLES
B1: the binding entry is “binds”.
